No constants are given. Whether binding was seen depends on the method and setting. In cells and extracts the contact can be indirect. Tags and fused reporters may be left off the sequences shown.
Molecular target: T1, MtLYK3-YFP N (Medicago truncatula LysM domain-containing Receptor-Like Kinase 3 fused to the N-terminal part of split YFP) (Medicago truncatula) (UniProt Q6UD73)
T1 sequence: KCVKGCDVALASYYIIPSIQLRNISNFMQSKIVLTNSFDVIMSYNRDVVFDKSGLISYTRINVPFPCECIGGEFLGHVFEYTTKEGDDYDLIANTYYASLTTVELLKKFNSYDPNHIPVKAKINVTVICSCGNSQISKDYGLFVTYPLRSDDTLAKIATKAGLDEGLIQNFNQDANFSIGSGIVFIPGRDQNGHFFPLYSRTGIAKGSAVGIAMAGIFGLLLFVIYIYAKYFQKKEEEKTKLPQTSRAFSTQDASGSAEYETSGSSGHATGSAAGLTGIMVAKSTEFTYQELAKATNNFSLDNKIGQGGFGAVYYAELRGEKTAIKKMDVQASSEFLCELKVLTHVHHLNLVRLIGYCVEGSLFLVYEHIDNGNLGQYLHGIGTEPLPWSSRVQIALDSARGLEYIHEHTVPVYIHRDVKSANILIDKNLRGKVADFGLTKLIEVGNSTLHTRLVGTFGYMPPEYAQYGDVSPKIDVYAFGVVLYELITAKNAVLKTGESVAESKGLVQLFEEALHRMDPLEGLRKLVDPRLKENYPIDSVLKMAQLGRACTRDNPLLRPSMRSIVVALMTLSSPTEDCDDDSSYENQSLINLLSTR
Assay: split reporter; BiFluorescence Complementation in Nicotiana benthamiana leaves; Agrobacterium transformants with YFP C and YFP N constructs co-infiltrated at high optical densities (final OD600 = 0.5 each); YFP fluorescence by microscopy

- binding: no binding
Substance: MtLRRII.1-YFP C (Medicago truncatula LRRII.1 fused to the C-terminal part of split YFP) (receptor)
